# Measured values from PubChem BioAssay AID493014 (National Center for Advancing Translational Sciences (NCATS), 2011).
# Some of the results follow. Shown are side measurements of this screen, not its main read-out; they come without a call. Compounds called inactive in the main read-out are mostly missing here. Potencies come from curve fits of mixed quality, noted in brackets.
# Test: qHTS Assay to Find Inhibitors of Chronic Active B-Cell Receptor Signaling
# Conditions: ABC-DLBCL IkBa-CBG/CBR reporter, luminescence ratio (green luciferase fused to IkBa over red control in TMD8 lymphoma cells), 4 h
# Method in brief: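 Concentration-response series (up to 46 uM) were applied to TMD8 dual-reporter cells for 4 h at 37C with doxycycline. Green/red ratio, after filter-overlap correction, defined %Activity; red signal alone was normalised to basal cells and zero luminescence.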
# [1] = measured here: CBR red luminescence, cell number
# [2] = measured here: IkBa-CBG green luminescence
SMILES,AC50 [1],AC50 [2]
COc1cccc(NC(=O)c2cnc[nH]2)c1,"12.6 µM [falling, partial curve, poor fit]",
COC(=O)c1ccc(C)c(NS(=O)(=O)c2ccc3c(c2)OCCO3)c1,"20.6 µM [rising, partial curve]","16.4 µM [falling, partial curve]"
O=C(COC(=O)Cc1ccc(Cl)cc1)Nc1ccccc1F,"1.26 µM [falling, full curve, poor fit]",
CCN(CCNC(=O)c1ccc(CSc2nc3ccncc3[nH]2)cc1)c1ccccc1,,"7.31 µM [falling, partial curve, poor fit]"
Cc1occc1-c1nnc(SCC(=O)Nc2ccc(F)cc2)n1Cc1ccccc1,"2.59 µM [rising, single point]",
NC(=O)c1ccccc1N/C=C/C(=O)c1cccs1,"7.31 µM [falling, partial curve]",
CC(=O)c1sc(NC(=O)COc2c(C)cc(Cl)cc2C)nc1C,"0.282 µM [falling, full curve, poor fit]",
Cc1cc(C(=O)NCCN2CCN(c3cccc(Cl)c3)CC2)n(-c2ccccc2)n1,,"23.1 µM [falling, single point]"
Cc1[nH]c2ccccc2c1/C=N/NC(=O)c1ccc(N)cc1,"10 µM [falling, partial curve, poor fit]",
Cc1cc(F)ccc1NC(=O)c1cnccn1,"10 µM [rising, partial curve, poor fit]",
CCc1ccc2oc(-c3ccc(N)cc3)nc2c1,"10.3 µM [falling, partial curve, poor fit]",
O=C(Nc1ccccc1N1CCOCC1)c1ccc2c(c1)OCCO2,"6.31 µM [falling, single point]",
COc1cc(NC(=O)CN2C(=O)NC(C)(c3ccc4ccccc4c3)C2=O)c(C)cc1[N+](=O)[O-] (configuration not stated),"1.64 µM [falling, partial curve, poor fit]",
CCOC(=O)CNC(=O)CSc1ncccc1-c1nc2ccccc2[nH]1,"0.794 µM [falling, full curve]",
Cc1cccc(C(=O)Nc2ccc3ccccc3c2)c1,"7.94 µM [falling, partial curve]",
Cc1cc(C)n(-c2ccc(C(=O)Nc3cc(S(=O)(=O)N(C)C)ccc3Cl)cc2)n1,"0.651 µM [falling, full curve, poor fit]",
Cc1cccc(NS(=O)(=O)c2ccc(C(=O)NCC3(N4CCCCC4)CCCCC3)cc2)c1C,"4.11 µM [falling, single point]",
Cc1cc(C)c2nc(/N=C(\N)NC(=O)c3ccccc3)nc(C)c2c1,"0.316 µM [falling, full curve]",
COc1cccc(-c2noc(-c3ccoc3C)n2)c1,"3.98 µM [rising, single point]",
CN(CC(=O)Nc1ccccc1Br)Cc1nc2ccccc2c(=O)[nH]1,"11.2 µM [rising, partial curve, poor fit]",

SMILES,AC50 [1],AC50 [2]
Cc1ccc(C(=O)Nc2cccnc2Oc2ccc(Cl)cc2)cc1,"3.55 µM [rising, single point]",
O=C(NCCC1=CCCCC1)C1CCCN(c2nc3ccccc3o2)C1 (configuration not stated),"0.355 µM [falling, full curve, poor fit]",
O=C(CN1CCN(S(=O)(=O)c2ccccc2)CC1)Nc1ccccc1C(=O)c1ccccc1,"20.6 µM [falling, partial curve, poor fit]",
CCN1CCN(Cc2ccc(NC(=O)c3ccc(C)c(NC(=O)c4nccnc4N)c3)cc2C(F)(F)F)CC1,"20 µM [falling, partial curve, poor fit]","4.47 µM [rising, full curve, poor fit]"
O=C(CN1CCC(NC(=O)Nc2ccccc2)CC1)Nc1cccc([N+](=O)[O-])c1,"14.1 µM [falling, partial curve, poor fit]",
Cc1cc(=O)oc2cc(OCCSCCN3CCOCC3)ccc12,"7.08 µM [rising, partial curve, poor fit]",
O=C(CCCN1C(=O)/C(=C\c2ccccc2)SC1=S)Nc1ccc(O)cc1,"2.51 µM [falling, full curve]",
CCn1c(=O)n(CC(=O)N(C)Cc2ccccc2)c(=O)c2ccccc21,"0.00461 µM [falling, full curve, poor fit]",
COc1cccc(C(=O)N/N=C(\CC(C)C)c2ccccc2)c1,"8.2 µM [falling, partial curve]",
CCc1cn(S(=O)(=O)c2ccccc2OC)nc1N,"1.3 µM [falling, full curve, poor fit]",
CCc1nn2c(=O)cc(COc3cccc(NC(=O)c4ccco4)c3)nc2s1,"2.24 µM [falling, full curve]",
O=c1c(Cl)c(N2CCN(c3ccc(F)cc3)CC2)cnn1-c1nc2ccccc2s1,"3.26 µM [rising, partial curve, poor fit]",
Cc1ccc(-n2c(C)c(C)c3c(NCCCO)ncnc32)cc1,"14.1 µM [falling, single point]",
COc1cccc(/C=C2\SC(=S)N(CCCC(=O)NC3=NCCS3)C2=O)c1,"1.41 µM [falling, full curve]",
CCOc1ccc(C(=O)CC(C(=O)O)N2CCCCC2)cc1 (configuration not stated),"29.1 µM [falling, single point]",
COc1ccc2c(c1OC)C(=O)N1c3ccccc3C(=O)N(c3ccccc3)C21 (configuration not stated),"29.1 µM [falling, single point]",
CCCn1nc([N+](=O)[O-])c(C(C#N)c2nc3ccccc3s2)c(Cl)c1=O (configuration not stated),"3.66 µM [falling, partial curve]","20.6 µM [rising, partial curve, poor fit]"
COc1cc(NCc2ccccc2)c2ncn(C(C)C)c2c1,"7.31 µM [rising, partial curve, poor fit]",
CCN1C(=O)CC(C(=O)Nc2ccc(F)cc2)SC1=Nc1cccc(OC)c1 (configuration not stated),"35.5 µM [falling, single point]",
COCCCNC(=S)N1CCCC(c2nc3cc(C)c(C)cc3[nH]2)C1 (configuration not stated),"35.5 µM [falling, single point]",

# Ordered by molar mass (smallest number first): part of the list above.
SMILES,AC50 [1],AC50 [2]
Cc1ccc(-n2c(C)c(C)c3c(NCCCO)ncnc32)cc1,"14.1 µM [falling, single point]",
Cc1ccc(C(=O)Nc2cccnc2Oc2ccc(Cl)cc2)cc1,"3.55 µM [rising, single point]",
COCCCNC(=S)N1CCCC(c2nc3cc(C)c(C)cc3[nH]2)C1 (configuration not stated),"35.5 µM [falling, single point]",

# Additional entries follow.

SMILES,AC50 [1],AC50 [2]
O=C(CSc1nnnn1-c1ccc(O)cc1)NC1CCCCC1,"12.6 µM [falling, partial curve, poor fit]",
CCCCCn1nc(C(=O)OCC(=O)c2c(N)n(C)c(=O)n(C)c2=O)c2ccccc2c1=O,"14.1 µM [falling, single point]","15.8 µM [rising, partial curve, poor fit]"
Cc1ccc(NC(=O)NCCSc2ccc(C)cc2)cc1,"35.5 µM [rising, single point]",
O=C1/C(=C/c2ccc([N+](=O)[O-])cc2)Oc2cc(O)ccc21,"1.41 µM [rising, partial curve]",
O=C(COC(=O)c1cc(Br)ccc1O)c1ccc(F)cc1,"8.2 µM [rising, partial curve, poor fit]",
COc1cc2c(C#N)c(N3CCOCC3)nc(N)c2c(N)n1,"4.61 µM [falling, single point]","1.84 µM [rising, partial curve, poor fit]"
O=C(Nc1ccc(Cl)c(S(=O)(=O)N2CCOCC2)c1)c1ccc(Cl)nc1,"9.2 µM [falling, partial curve]",
Cc1c(NS(=O)(=O)c2ccc(Cl)c(C(=O)OC(C)C(=O)N3CCOCC3)c2)c(=O)n(-c2ccccc2)n1C (configuration not stated),"17.8 µM [rising, partial curve, poor fit]",
Nn1c(SCC(=O)Nc2ccc3c(c2)OCO3)nnc1C1CC1,"3.66 µM [falling, partial curve, poor fit]",
Cc1cccc(N=C2NC(=O)/C(=C/C=C/c3ccco3)S2)c1C,"7.31 µM [rising, partial curve, poor fit]",
O=c1oc2ccccc2c(NC(c2ccccc2)c2ccccc2)c1[N+](=O)[O-],"32.6 µM [falling, partial curve, poor fit]",
Cc1ccc(C(=O)CCC(=O)Nc2ccccc2F)cc1,"17.8 µM [falling, partial curve, poor fit]",
COc1cc(/C=N/NC(=S)NCCc2ccccc2)cc(OC)c1OC,"2.82 µM [falling, partial curve, poor fit]",
Cc1cc(C)nc(SCC(=O)Nc2ccnc3ccccc23)n1,"15.8 µM [falling, single point]",
Cc1cc(C)c(-c2cc(C(=O)Nc3cc(C)ccc3C)[nH]n2)c(O)c1,"25.1 µM [falling, single point]",
CCOC(=O)N1CCN(c2c(NCc3ccc(F)cc3)c(=O)c2=O)CC1,"12.6 µM [rising, partial curve]","14.1 µM [falling, single point]"
O=C(CSc1nc2c([nH]c3ccccc32)c(=O)n1-c1ccccc1)N1CCOCC1,"0.0058 µM [rising, full curve, poor fit]",
COCCNC(=S)N1CCCC(CO)C1 (configuration not stated),"0.1 µM [falling, full curve, poor fit]",
Cn1c(N)c(C(=O)COC(=O)Cc2cccc(C(F)(F)F)c2)c(=O)n(C)c1=O,"2.06 µM [falling, partial curve, poor fit]","16.4 µM [rising, partial curve, poor fit]"
CS(=O)(=O)Nc1cccc(C2=NN(C(=O)c3cccc([N+](=O)[O-])c3)C(c3cccs3)C2)c1 (configuration not stated),"35.5 µM [falling, single point]",

# Shown with bars between the fields: three of the compounds above
SMILES | AC50 [1] | AC50 [2]
O=C(Nc1ccccc1N1CCOCC1)c1ccc2c(c1)OCCO2 | 6.31 µM [falling, single point] | 
COc1cc(NC(=O)CN2C(=O)NC(C)(c3ccc4ccccc4c3)C2=O)c(C)cc1[N+](=O)[O-] (configuration not stated) | 1.64 µM [falling, partial curve, poor fit] | 
CCOC(=O)CNC(=O)CSc1ncccc1-c1nc2ccccc2[nH]1 | 0.794 µM [falling, full curve] | 
